From patent US7244430 come the findings set out here.

Experiment [1] deals with West Nile virus strain USA99b (strain 385-99) (West Nile virus strain 385-99 (USA99b)). The experiment is described as follows: phage ELISA, coated whole inactivated WNV. (An ELISA detects its analyte on a solid surface through an enzyme-linked reagent.)
Experiment [2] has the same target. The experiment is described as follows: SPR (BIAcore 3000) affinity ranking: inactivated WNV captured on immobilised CR4283, 1000 nM antibody injected; response after association and after 370 s of dissociation, average of two measurements. A general note: Surface plasmon resonance follows binding to a sensor surface in real time, without labels.
For experiment [3] the target is unchanged. As to the kind of experiment: Western blot or immunoprecipitation of inactivated WNV; E protein recognized. On the technique in general: A western blot detects proteins with antibodies after separation by electrophoresis.

Results are given in words; binding and its absence hold for the method and conditions named. A result given as binding can be weak or reduced; the word gives no strength.

B1: SC04-299 (scFv)
scFv: EVQLVETGGGVVQPGRSLRLSCAASGFTFSGYAMHWVRQAPGKGLDWVAVISYDGSEKYSADSVKGRFTISRDNSKNTLYLQMNSLRAEDTAVYYCAKESGGPIWYKYYGVDVWGQGTTVTVSSGTGGSGGTGSGTGGSTSYVLTQPPSLSAAPRQRVTISCSGSSSNIGNYGVNWYQQLPGKAPKLLIYYDDLLPSGVSDRFSGSKSGTSASLAISGLQSEDEGDYYCAAWDDTLSAWVFGGGTKLTVLG
For B1, the binding result in experiment [1] is on record as “binds”.

B2: CR4299 (antibody, V domains shown)
VH: QVQLVESGGGVVQPGRSLRLSCAASGFTFSGYAMHWVRQAPGKGLDWVAVISYDGSEKYSADSVKGRFTISRDNSKNTLYLQMNSLRAEDTAVYYCAKESGGPIWYKYYGVDVWGQGTTVTVSS
VL: SYVLTQPPSLSAAPRQRVTISCSGSSSNIGNYGVNWYQQLPGKAPKLLIYYDDLLPSGVSDRFSGSKSGTSASLAISGLQSEDEGDYYCAAWDDTLSAWVFGGGTKLTVLG
With B2, the binding entry in experiment [2] and in experiment [3] was “binds” each time.

B3: CR4289 (antibody, V domains shown)
VH: EVQLVQSGAEVKKPGESLRISCKGSGYSFTSNWITWVRQMPGKGLEWMGRIDPSDSYTNYSPSFQGHVTISADKSISTAYLQWSSLKASDTAMYYCARDVVGVGASDYYYYMDVWGQGTTVTVSS
VL: EIVLTQSPGTLSLSPGETATLSCRTSQSVSSSYLGWYQQKPGQAPRLLIYGASIRATGIPARFSGSGSGTEFTLTIDSLQSEDFAVYYCQQYNNWPPITFGQGTRLEIKR
As to B3, the binding entry in experiment [2] and in experiment [3] was “binds” each time.

B4: SC04-311 (scFv)
scFv: EVQLVQSGGGVVQPGRSLRLSCVASGFTFSKDAMHWVRQAPGKGLEWVAVISYDGSDKHYADSVKGRVTISRDNSRKTLYLRMDSLRAEDTALYYCARGYNSGHYFDYWGQGTLITVSSGTGGSGGTGSGTGGSTQSVLTQPPSVSAAPGQKVTISCSGTSSNIGDNYVSWYQHLPGTAPKLLIYDNNKRPSGIPDRFSGSKSGTSATLGVTGLQTGDEADYYCGTWDSSLTAVVFGGGTKLTVLG
In the case of B4, the binding result in experiment [1] is “binds”.

B5: SC04-283 (scFv)
scFv: EVQLVQSGAEVKKSGESLKISCKGSGYTFNTYWIGWVRQMPGKGLEWMGIIYPGDSDTIYSPSFQGQVTISADKSISTAYLQWSSLKASDSAMYYCARLTFRRGYSGSDSFLPPGDFDYWGQGTLVTVSSGTGGSGGTGSGTGGSTDIQMTQSPSTLSASVGDRVTITCRASQSISSWLAWYQQKPGKAPNLLIYAASSLQSGVPSRFSGSGSGTDFTLTISSLQPDDSATYYCQQYNTYPLTFGGGTKVEIKR
Consider B5, for which the binding entry in experiment [1] was “binds”.

B6: SC04-271 (scFv)
scFv: EVQLVETGAEVKKPGESLRISCKGSGYTFNNYWIGWVRQMPGKGLEWMGIIYPGDSDTRYSPSVQGHVTISADKSINTAYLQWSSLKASDTAVYYCARRPGYDYGFYYFDYWGQGTLVTVSSGTGGSGGTGSGTGGSTQSALTQPRSVSGSPGQSVTISCTGTSSDVGGYNYVSWYQHHPGKAPKLMIYDVSNRPLGVSNRFSGSKSGNTASLTISGLQAEDEADYYCSSYTSSSTYVFGTGTHLTVLS
In the case of B6, the binding result in experiment [1] is given as “binds”.

B7: SC04-289 (scFv)
scFv: QMQLVQSGAEVKKPGESLRISCKGSGYSFTSNWITWVRQMPGKGLEWMGRIDPSDSYTNYSPSFQGHVTISADKSISTAYLQWSSLKASDTAMYYCARDVVGVGASDYYYYMDVWGKGTTVTVSSGTGGSGGTGSGTGGSTEIVLTQSPGTLSLSPGETATLSCRTSQSVSSSYLGWYQQKPGQAPRLLIYGASIRATGIPARFSGSGSGTEFTLTIDSLQSEDFAVYYCQQYNNWPPITFGQGTRLEIKR
Turning to B7, the binding entry in experiment [1] is “binds”.
